Assay results reported in PubChem BioAssay AID504444 (National Center for Advancing Translational Sciences (NCATS), 2011).
Screen size: about 360,000 compounds; about 7,500 (2.1%) were called active. This list was built around the results that the source calls inconclusive (neither active nor inactive); the mix of calls is not that of the screen. Calls follow the shape of the dose curve; as a rule, active = well fitted inhibition curve with a large enough effect; inconclusive = small, poorly fitted or top-dose-only effect, or effect the other way; inactive = flat fitted curve, though single readings scatter. Potencies of inconclusive entries are doubtful fits and often do not repeat.

experiment: Nrf2 qHTS screen for inhibitors; details: A549 ARE-Fluc reporter, luciferase luminescence, 18-24 h; activity change, negative = inhibition: at 46 µM (top of the series); also: nearly all actives have a fitted effect of over 60% in size
Method in brief: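 In this cell-based qHTS, ARE-driven firefly luciferase in A549 cells reports Nrf2 activity; the luminescent signal after BugLite lysis is the measured value, with a prior CellTiter-Fluor read for cell health.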
% is scaled to controls: 0 for no effect and ±100 for the full control effect; potency is read from the fitted curve at half-maximal effect.

Compound | Potency | activity change, negative = inhibition
COc1cccc(N(CC(=O)NCCSc2ccc(Cl)cc2)S(C)(=O)=O)c1 | inconclusive: 25.9 µM [falling, single point] | –
Cc1ccc(/C=C2/C(=O)ON=C2c2ccccc2)o1 | inconclusive: 23.1 µM [activator, single point] | –
O=C(CCS(=O)(=O)c1ccccc1)Nc1nc2ccc(F)cc2s1 | – | inactive: 20.8%
Cc1ccc(NC(=O)c2ccc(NCCN)c([N+](=O)[O-])c2)cc1Cl | – | inactive: 13.1%
COc1ccc(Cn2c(SCc3ccc(C(=O)NC4CCCC4)cc3)nc3cccnc32)cc1 | – | inactive: -29.9%
C[C@@H]1CN([C@H](C)CO)C(=O)Cc2cc(NS(=O)(=O)c3ccc(Cl)cc3)ccc2O[C@H]1CN(C)Cc1ccc(C(F)(F)F)cc1 | inconclusive: 20.6 µM [falling, single point] | –
COc1ccc2cc(C(N)=O)c(=Nc3ccc(C)cc3)oc2c1 | inconclusive: 5.17 µM [activator, single point] | –
C/C(=N\NC(=O)c1cc(-c2ccncc2)nc2ccccc12)c1ccc(OC(F)F)cc1 | inconclusive: 29.1 µM [falling, single point] | –
COc1ccc(/C(N)=N/OC(=O)c2ccc3c(c2)OCO3)cc1 | inconclusive: 9.2 µM [activator, partial curve] | –
NC(=O)C1CCN(C2=C(NS(=O)(=O)c3ccc(Br)cc3)C(=O)c3ccccc3C2=O)CC1 | – | inactive: -12%
CC(C)C1Oc2ccccc2C(=O)N(CC(=O)c2ccc3c(c2)OCCO3)C1=O (stereo unspecified) | inconclusive: 2.31 µM [activator, partial curve] | –
Cc1ccc(S(=O)(=O)N(CC(=O)Nc2cccc([N+](=O)[O-])c2)Cc2ccc(Cl)cc2)cc1 | inconclusive: 29.1 µM [falling, single point] | –
O=C1CN(C(=O)CN2CCCC2)C(c2ccccc2)c2cc(Br)ccc2N1 (stereo unspecified) | inconclusive: 3.66 µM [activator, full curve, poor fit] | –
Cc1ccc(OCCCCn2ccnc2C)c(C)c1 | inconclusive: 18.4 µM [falling, partial curve, poor fit] | –
COc1cccc(NC(=O)Cn2nnc(C(=O)Nc3cc(Cl)ccc3OC)c2N)c1 | inconclusive: 23.1 µM [falling, single point] | –
CSCCC(NC(=O)c1ccc(Cl)cc1Cl)C(=O)N1CCCCCCC1 (stereo unspecified) | – | inactive: -7.55%
CCc1ccc(C(=O)NNc2ccc(F)cc2)cc1 | – | inactive: -5.09%
O=C(N/N=C/C=C/c1ccccc1)c1cccc(Br)c1 | inconclusive: 16.4 µM [falling, partial curve, poor fit] | –
CCn1cc(CNC(=O)c2cc(-c3ccc(C)c(C)c3)nc3ccccc23)c(C)n1 | inconclusive: 32.6 µM [falling, single point] | –
COc1cc(OC)cc(-c2nnc(NC(=O)CCS(=O)(=O)c3ccccc3)o2)c1 | – | inactive: -4.88%
COc1ccc(NC(=O)NC2CCCCCCC2)cc1OC | inconclusive: 20.6 µM [activator, single point] | –
Cc1cc(C)nc(/N=C2\NC(=O)CC(C(=O)O)N2CCc2c[nH]c3ccccc23)n1 (stereo unspecified) | – | inactive: -14.1%

Compound | Potency | activity change, negative = inhibition
COc1cc2[nH]c(=S)nc(NCc3ccc(C)cc3)c2cc1OC | inconclusive: 13 µM [falling, partial curve, poor fit] | –
CCOC(=O)Cc1csc(NC(=O)c2ccc3ncsc3c2)n1 | – | inactive: 2.04%
Cc1ccc(OCc2nnc(SCC(=O)c3ccccc3)n2-c2ccccc2)cc1 | inconclusive: 18.4 µM [falling, single point] | –
COCC1CCN(C(=O)c2cc(COc3cc(C)c(Cl)c(C)c3)on2)C1 (stereo unspecified) | inconclusive: 1.46 µM [activator, full curve, poor fit] | –
CCn1cc2nc(SCC(=O)Nc3ccc(C)cc3C)n(Cc3ccc(C)cc3)c(=O)c2n1 | inconclusive: 18.4 µM [falling, single point] | –
CCC(=O)NCc1cc(-c2nn(C)c(=O)c3ccccc23)ccc1OC | inconclusive: 13 µM [falling, partial curve] | –
COc1ccccc1C(=O)Nc1nc(-c2ccc(S(=O)(=O)N3CCOCC3)cc2)cs1 | active: 5.17 µM | –
COc1cc([N+](=O)[O-])ccc1NC(=O)CN1CCc2cc(OC)c(OC)cc2C1 | inconclusive: 20.6 µM [falling, single point] | –
CC1CC(=O)N(c2ccc(NCCc3ccc(O)cc3)c([N+](=O)[O-])c2)C1=O (stereo unspecified) | inconclusive: 18.4 µM [falling, single point] | –
Cn1nnnc1SCc1ccc(C(=O)Nc2nccs2)cc1 | inconclusive: 1.84 µM [activator, full curve, poor fit] | –
COC(=O)N1C(=O)[C@@](Cc2ccccc2)(c2ccccc2)N1C(=O)OC | inconclusive: 29.1 µM [falling, single point] | –
COc1ccccc1OCC(=O)Nc1ccc2c(c1)OCCO2 | inconclusive: 3.26 µM [activator, full curve, poor fit] | –
O=C(CCCN1C(=O)/C(=C/c2ccccc2Cl)SC1=S)N1CCOCC1 | – | inactive: -24.4%
COc1ccc(NS(=O)(=O)c2ccc(Cl)c(NC(=O)c3ccccc3F)c2)cc1 | inconclusive: 18.4 µM [falling, single point] | –
Cc1ccc(-c2noc(CCC(=O)N3CCN(c4cccc(C(F)(F)F)c4)CC3)n2)cc1 | inconclusive: 11.6 µM [falling, single point] | –
COc1ccc(C(=O)Nc2cc(C)on2)cc1OC | inconclusive: 29.1 µM [falling, single point] | –
CCOC(=O)CNS(=O)(=O)c1cc(-c2nnc(Nc3cccc(O)c3)c3ccccc23)ccc1C | – | inactive: 10.1%
COc1ccc(-c2cc(C(=O)Nc3ccc(Cl)cc3Cl)c3ccccc3n2)cc1OC | – | inactive: 14.6%
COc1ccc(N=C2SC(CC(=O)Nc3ccccc3)C(=O)N2Cc2ccco2)cc1 (stereo unspecified) | inconclusive: 16.4 µM [falling, partial curve] | –
O=c1sc(/C=N/Nc2ccccc2)c(Cl)n1Cc1ccccc1 | inconclusive: 23.1 µM [activator, partial curve, poor fit] | –
CCCc1ccc(C2Sc3ccccc3NC3=C2C(=O)c2ccccc23)cc1 (stereo unspecified) | inconclusive: 29.1 µM [falling, single point] | –
CC1=C(C(=O)OCC(C)C)C(c2cccs2)NC(=S)N1 (stereo unspecified) | inconclusive: 23.1 µM [falling, partial curve, poor fit] | –

Compound | Potency | activity change, negative = inhibition
O=C(N/N=C/c1ccc[nH]1)c1cc2ccccc2cc1O | inconclusive: 25.9 µM [falling, partial curve, poor fit] | –
Cc1ccc(Cc2c(C)c(C#N)c3[nH]c4ccccc4n3c2=O)cc1 | inconclusive: 11.6 µM [falling, partial curve, poor fit] | –
COc1ccc(Nc2ncnc3c2oc2ccccc23)cc1 | inconclusive: 6.51 µM [activator, partial curve] | –
CC(c1ccccc1)C1OCC(C[N+]2(C)CCCCC2)O1 (stereo unspecified) | inconclusive: 16.4 µM [falling, partial curve, poor fit] | –
Cc1ccc(S(=O)(=O)/N=C2\C(=O)c3ccccc3C([O-])=C2n2cc[n+](CCC(C)C)c2)cc1 | inconclusive: 29.1 µM [falling, single point] | –
COc1ccccc1N1CCN(C(=O)c2cc3c(=O)n(Cc4ccco4)ccc3nc2C)CC1 | inconclusive: 18.4 µM [activator, partial curve, poor fit] | –
Cc1ccnc(NC(=O)CNC(=O)c2ccc(C)s2)c1 | inconclusive: 29.1 µM [activator, single point] | –
COc1cc(OC)cc(C(=O)NC(=S)Nc2ccc(N3CCCC3)cc2)c1 | – | inactive: 1.2%
c1coc(-c2ccnc3nc(-n4cccc4)nn23)c1 | – | inactive: 8.24%
CC1CCCC(C)N1C(=O)COC(=O)c1cc(=O)[nH]c2ccccc12 (stereo unspecified) | inconclusive: 10.3 µM [activator, single point] | –
O=C1NC(c2cccc(Cl)c2)Oc2ccccc21 (stereo unspecified) | inconclusive: 6.51 µM [falling, full curve, poor fit] | –
O=C1Nc2ccccc2C1=Nc1ccc(-c2nnc3n2CCCCC3)cc1 | inconclusive: 29.1 µM [activator, partial curve, poor fit] | –
Cc1ccccc1NC(=O)CCn1cnc2onc(-c3ccc(F)cc3)c2c1=O | – | inactive: -18%
CC(C)(C)CC(C)(C)NC(=O)Nc1cccc([N+](=O)[O-])c1 | inconclusive: 29.1 µM [falling, single point] | –
O=S(=O)(c1ccccc1)c1nc(-c2cccs2)oc1SCc1ccccc1F | – | inactive: 4.26% [at 9.27 µM]
COc1ccc(OCCN(C)CC(=O)Nc2c(C)cccc2C)cc1 | – | inactive: -19.8%
COc1ccc(C(C)(C)C)cc1NS(=O)(=O)c1cccc2cccnc12 | inconclusive: 29.1 µM [falling, single point] | –
Cc1ccccc1N(C(=O)Cc1cccs1)C(C(=O)NCC1CCCO1)c1cccnc1 (stereo unspecified) | inconclusive: 0.206 µM [activator, full curve, poor fit] | –
CCCCC(CC)CNC(=O)C1CCN(S(=O)(=O)c2cccc3nsnc23)CC1 (stereo unspecified) | inconclusive: 29.1 µM [falling, partial curve, poor fit] | –
O=[N+]([O-])c1cc(-c2ccc(C(=S)N3CCOCC3)o2)ccc1Cl | inconclusive: 20.6 µM [activator, partial curve] | –
Cc1cc(C)cc(OCC(=O)Nc2cccc(C(=O)O)c2)c1 | inconclusive: 25.9 µM [activator, single point] | –
COc1cc(C2CC(=O)c3c([nH]c(C(=O)OCCOC(C)C)c3C)C2)cc(OC)c1OC (stereo unspecified) | active: 4.61 µM | –

Given in markdown: part of the list above.

| Compound | Potency | activity change, negative = inhibition |
| --- | --- | --- |
| O=C1Nc2ccccc2C1=Nc1ccc(-c2nnc3n2CCCCC3)cc1 | inconclusive: 29.1 µM [activator, partial curve, poor fit] | – |
| Cc1ccccc1NC(=O)CCn1cnc2onc(-c3ccc(F)cc3)c2c1=O | – | inactive: -18% |
| CC(C)(C)CC(C)(C)NC(=O)Nc1cccc([N+](=O)[O-])c1 | inconclusive: 29.1 µM [falling, single point] | – |
| O=S(=O)(c1ccccc1)c1nc(-c2cccs2)oc1SCc1ccccc1F | – | inactive: 4.26% [at 9.27 µM] |
| COc1ccc(OCCN(C)CC(=O)Nc2c(C)cccc2C)cc1 | – | inactive: -19.8% |
